The values below come from the supplement of paper PMC6411743.

The chains behind the UniProt entries cited, without tags or fusion partners. Where a name states a change or a piece, a line headed by the entry shows the natural chain unless it says otherwise.
UniProt P51797: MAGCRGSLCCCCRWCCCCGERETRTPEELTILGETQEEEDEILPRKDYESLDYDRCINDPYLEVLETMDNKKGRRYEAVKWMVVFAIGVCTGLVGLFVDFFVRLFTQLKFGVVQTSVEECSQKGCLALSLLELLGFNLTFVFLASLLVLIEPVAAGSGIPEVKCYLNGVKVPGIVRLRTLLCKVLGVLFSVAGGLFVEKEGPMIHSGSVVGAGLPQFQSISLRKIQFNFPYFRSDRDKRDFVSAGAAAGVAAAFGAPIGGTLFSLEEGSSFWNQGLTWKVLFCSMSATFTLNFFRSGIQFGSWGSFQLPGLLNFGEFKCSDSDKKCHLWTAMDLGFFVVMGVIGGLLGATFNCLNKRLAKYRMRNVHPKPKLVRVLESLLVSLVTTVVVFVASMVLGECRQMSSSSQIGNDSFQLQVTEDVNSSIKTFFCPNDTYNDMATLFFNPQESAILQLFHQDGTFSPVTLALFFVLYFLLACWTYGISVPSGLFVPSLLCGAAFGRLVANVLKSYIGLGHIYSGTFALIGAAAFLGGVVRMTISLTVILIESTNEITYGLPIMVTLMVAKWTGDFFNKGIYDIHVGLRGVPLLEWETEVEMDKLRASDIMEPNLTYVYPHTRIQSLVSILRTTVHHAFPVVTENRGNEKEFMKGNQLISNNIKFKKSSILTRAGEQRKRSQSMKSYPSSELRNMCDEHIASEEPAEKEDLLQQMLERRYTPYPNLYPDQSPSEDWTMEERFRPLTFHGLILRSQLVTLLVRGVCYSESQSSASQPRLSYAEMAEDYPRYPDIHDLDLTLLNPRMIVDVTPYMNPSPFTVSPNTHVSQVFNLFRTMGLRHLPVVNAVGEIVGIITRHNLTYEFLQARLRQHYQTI
UniProt P50583: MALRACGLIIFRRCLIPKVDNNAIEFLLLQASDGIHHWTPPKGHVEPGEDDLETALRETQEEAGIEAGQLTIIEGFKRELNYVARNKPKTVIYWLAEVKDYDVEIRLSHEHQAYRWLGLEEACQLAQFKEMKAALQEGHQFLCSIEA
UniProt P51178: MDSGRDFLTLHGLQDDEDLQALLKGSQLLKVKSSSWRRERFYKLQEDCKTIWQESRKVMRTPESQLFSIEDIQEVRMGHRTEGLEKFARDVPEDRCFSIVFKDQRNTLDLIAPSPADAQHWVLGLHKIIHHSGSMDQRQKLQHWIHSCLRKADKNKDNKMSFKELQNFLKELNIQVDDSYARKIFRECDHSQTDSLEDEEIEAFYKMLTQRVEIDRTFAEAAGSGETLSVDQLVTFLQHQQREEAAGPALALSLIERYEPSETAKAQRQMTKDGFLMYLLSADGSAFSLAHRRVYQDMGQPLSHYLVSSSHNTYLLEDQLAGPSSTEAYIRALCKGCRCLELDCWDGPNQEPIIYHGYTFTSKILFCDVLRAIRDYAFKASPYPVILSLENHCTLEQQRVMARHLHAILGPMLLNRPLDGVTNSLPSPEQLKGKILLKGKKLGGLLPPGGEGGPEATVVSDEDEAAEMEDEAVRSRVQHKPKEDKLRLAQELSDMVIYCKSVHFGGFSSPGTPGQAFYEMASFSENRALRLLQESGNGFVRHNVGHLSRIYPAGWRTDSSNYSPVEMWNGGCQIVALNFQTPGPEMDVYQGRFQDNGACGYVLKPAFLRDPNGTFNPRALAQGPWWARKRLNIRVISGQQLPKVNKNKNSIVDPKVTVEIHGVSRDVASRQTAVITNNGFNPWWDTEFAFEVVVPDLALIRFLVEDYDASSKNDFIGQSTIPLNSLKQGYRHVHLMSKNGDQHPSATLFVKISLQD
UniProt P46108: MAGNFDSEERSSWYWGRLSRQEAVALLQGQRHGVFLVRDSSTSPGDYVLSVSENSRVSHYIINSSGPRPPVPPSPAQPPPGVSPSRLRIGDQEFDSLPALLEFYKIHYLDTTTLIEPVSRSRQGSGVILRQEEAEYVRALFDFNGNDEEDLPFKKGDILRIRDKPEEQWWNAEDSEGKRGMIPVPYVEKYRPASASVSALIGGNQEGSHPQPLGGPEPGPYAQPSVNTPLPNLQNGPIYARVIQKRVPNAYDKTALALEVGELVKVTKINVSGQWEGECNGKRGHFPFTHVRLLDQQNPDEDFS
UniProt P49590: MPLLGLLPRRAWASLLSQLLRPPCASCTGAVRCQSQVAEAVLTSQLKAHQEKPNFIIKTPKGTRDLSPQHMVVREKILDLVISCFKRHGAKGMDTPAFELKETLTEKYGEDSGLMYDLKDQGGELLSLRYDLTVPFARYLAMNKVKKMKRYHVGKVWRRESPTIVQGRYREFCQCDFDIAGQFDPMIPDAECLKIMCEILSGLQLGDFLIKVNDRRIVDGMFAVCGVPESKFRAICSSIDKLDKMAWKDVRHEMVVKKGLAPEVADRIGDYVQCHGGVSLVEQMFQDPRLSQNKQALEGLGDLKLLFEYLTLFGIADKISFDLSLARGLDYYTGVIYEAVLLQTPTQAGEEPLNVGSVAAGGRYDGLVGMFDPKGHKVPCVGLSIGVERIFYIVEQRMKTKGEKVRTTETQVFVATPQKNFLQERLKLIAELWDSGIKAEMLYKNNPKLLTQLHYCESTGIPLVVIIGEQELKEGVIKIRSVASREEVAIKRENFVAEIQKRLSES
UniProt P49005: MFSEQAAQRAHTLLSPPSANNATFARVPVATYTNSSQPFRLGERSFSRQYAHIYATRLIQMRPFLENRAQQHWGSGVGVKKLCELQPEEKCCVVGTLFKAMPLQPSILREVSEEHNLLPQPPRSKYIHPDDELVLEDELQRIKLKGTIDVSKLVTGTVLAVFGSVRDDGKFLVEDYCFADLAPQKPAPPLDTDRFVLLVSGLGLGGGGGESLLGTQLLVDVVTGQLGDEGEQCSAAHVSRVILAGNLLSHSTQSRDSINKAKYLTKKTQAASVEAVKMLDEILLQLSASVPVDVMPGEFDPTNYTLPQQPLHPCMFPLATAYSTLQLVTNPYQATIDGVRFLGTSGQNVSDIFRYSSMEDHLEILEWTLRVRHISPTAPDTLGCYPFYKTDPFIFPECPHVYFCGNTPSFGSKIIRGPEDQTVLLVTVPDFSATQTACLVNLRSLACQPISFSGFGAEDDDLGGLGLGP
UniProt P49795: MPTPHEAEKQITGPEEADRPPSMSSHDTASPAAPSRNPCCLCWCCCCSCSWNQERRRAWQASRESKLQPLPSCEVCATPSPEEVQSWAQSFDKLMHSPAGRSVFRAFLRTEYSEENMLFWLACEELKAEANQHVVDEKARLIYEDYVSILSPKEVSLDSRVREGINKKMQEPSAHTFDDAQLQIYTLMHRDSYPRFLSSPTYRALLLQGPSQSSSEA
UniProt P54652, whole entry: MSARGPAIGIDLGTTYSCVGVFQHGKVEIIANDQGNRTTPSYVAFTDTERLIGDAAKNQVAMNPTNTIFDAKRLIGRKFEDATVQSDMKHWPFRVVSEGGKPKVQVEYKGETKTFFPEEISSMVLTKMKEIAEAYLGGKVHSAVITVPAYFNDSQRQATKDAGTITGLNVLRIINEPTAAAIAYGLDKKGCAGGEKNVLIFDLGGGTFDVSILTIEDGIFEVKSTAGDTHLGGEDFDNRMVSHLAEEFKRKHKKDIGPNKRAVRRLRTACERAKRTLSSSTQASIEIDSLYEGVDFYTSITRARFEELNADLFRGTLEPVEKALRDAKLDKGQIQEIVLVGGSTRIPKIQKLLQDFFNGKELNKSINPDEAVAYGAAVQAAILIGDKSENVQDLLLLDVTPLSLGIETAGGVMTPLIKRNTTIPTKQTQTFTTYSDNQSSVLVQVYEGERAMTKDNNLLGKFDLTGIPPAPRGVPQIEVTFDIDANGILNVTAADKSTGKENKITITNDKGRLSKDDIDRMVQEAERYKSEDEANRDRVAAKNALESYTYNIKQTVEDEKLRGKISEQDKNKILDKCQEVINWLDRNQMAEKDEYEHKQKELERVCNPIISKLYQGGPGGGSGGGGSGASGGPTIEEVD
UniProt P46976: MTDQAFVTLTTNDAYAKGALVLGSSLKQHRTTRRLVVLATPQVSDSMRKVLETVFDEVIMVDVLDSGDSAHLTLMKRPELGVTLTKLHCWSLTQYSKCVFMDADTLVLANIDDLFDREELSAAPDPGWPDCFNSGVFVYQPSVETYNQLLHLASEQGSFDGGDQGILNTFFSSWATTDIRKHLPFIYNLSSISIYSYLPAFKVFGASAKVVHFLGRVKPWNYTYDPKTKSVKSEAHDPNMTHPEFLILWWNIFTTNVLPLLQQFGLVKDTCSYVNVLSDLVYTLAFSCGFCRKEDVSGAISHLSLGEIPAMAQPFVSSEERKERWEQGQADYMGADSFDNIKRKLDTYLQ
UniProt P41440: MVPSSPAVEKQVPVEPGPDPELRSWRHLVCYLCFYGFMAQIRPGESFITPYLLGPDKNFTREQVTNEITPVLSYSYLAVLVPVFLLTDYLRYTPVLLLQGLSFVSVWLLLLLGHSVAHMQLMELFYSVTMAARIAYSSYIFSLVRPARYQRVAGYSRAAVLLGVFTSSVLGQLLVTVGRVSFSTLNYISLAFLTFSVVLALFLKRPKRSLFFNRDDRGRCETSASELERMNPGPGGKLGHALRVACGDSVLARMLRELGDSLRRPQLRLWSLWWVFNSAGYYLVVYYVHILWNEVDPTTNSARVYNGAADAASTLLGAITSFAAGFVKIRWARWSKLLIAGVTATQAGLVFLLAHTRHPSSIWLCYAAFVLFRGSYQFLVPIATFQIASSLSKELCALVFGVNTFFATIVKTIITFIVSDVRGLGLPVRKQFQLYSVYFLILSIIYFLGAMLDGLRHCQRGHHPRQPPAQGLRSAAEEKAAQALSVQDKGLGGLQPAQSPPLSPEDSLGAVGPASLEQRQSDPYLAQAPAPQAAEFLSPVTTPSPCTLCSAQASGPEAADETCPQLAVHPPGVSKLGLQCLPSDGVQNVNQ
UniProt P51116, whole entry: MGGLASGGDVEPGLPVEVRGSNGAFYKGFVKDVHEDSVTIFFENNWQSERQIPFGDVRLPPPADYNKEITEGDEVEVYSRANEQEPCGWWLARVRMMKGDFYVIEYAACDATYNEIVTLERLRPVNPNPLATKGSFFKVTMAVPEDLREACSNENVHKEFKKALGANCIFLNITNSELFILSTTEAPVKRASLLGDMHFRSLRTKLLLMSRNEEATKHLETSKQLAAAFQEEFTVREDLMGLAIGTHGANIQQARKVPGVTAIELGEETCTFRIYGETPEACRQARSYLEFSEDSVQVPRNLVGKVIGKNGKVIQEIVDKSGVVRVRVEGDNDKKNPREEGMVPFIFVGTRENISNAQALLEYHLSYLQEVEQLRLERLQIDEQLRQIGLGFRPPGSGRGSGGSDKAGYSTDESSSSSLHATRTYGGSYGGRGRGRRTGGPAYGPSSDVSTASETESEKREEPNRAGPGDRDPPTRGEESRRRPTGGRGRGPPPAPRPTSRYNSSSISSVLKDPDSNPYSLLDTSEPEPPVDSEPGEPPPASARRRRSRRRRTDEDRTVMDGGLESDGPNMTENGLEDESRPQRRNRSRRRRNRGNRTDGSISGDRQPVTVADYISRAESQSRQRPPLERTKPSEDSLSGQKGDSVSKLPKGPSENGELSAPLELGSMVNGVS
UniProt P43490: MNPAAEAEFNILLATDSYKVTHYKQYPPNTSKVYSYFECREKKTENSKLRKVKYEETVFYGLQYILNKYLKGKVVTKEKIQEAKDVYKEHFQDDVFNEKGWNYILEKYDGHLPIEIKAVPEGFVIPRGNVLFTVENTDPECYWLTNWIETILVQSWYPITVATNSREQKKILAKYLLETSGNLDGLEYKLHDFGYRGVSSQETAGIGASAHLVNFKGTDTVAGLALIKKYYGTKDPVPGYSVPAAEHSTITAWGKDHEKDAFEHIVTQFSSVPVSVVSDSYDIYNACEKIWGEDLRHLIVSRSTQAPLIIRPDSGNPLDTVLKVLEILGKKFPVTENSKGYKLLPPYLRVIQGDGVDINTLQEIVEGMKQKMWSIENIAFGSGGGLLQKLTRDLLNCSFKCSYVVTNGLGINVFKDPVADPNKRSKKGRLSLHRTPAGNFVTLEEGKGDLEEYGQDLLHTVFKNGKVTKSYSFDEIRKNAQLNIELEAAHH
UniProt P49773: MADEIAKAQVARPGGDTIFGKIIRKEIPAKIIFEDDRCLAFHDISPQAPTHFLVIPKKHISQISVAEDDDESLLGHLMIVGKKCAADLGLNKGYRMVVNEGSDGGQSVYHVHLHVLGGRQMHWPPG
UniProt P49247: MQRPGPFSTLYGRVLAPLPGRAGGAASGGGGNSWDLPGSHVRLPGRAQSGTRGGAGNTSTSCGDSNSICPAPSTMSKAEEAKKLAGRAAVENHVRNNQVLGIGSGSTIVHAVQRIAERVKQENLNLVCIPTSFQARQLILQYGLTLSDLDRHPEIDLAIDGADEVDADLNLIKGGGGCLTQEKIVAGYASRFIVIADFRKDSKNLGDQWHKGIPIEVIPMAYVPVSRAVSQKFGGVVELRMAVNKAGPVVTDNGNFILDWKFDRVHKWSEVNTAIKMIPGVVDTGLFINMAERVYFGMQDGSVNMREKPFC
UniProt P47224: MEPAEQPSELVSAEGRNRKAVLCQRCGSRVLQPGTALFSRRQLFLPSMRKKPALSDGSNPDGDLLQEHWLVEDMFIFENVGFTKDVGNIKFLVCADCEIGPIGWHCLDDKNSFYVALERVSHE

± gives the standard deviation of the averaged measurements. Only a part is listed here, and it is no random draw. Small differences around the control level are noise.

Compound in the first test: Nc1ncnc2c1ncn2[C@@H]1O[C@H](COP(=O)(O)OP(=O)(O)NP(=O)(O)O)[C@@H](O)[C@H]1O [adenylyl imidodiphosphate]
The experiment in a line: NP40-soluble protein abundance relative to vehicle (solubility fold change) (ratio); higher = more soluble protein in presence of AMP-PNP. To be noted: concentration: 0.1mM. Summed up:
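Across three independent experiments, values are fold changes against the detergent-processed vehicle for each replicate, based on vsn-normalised intensities. The samples were Jurkat crude lysate treated with eight concentrations (0.1 to 10 mM) for 10 min at room temperature and then 3 min at 37 °C. Lysate was solubilised with 0.8% NP40 and benzonase, ultracentrifuged, and the supernatant analysed by TMT-labelled LC-MS/MS.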
For UniProt P51797 and related entries, the NP40-soluble protein abundance stood at 0.991 ± 0.038.

NUDT2 (UniProt P50583): the NP40-soluble protein abundance turned out to be 0.982 ± 0.053.

As to CLNS1A (UniProt P54105), the NP40-soluble protein abundance turned out to be 0.992 ± 0.015.

For IQGAP1 (UniProt P46940), the NP40-soluble protein abundance was 0.99 ± 0.019.

Consider UniProt P51178 and related entries, for which the NP40-soluble protein abundance was found to be 0.998 ± 0.042.

UniProt P46108 and related entries: the NP40-soluble protein abundance stood at 1.04 ± 0.036.

On to UniProt P51798 and related entries, for which the NP40-soluble protein abundance came out at 1.01 ± 0.023.

Consider UniProt P51795-2, for which the NP40-soluble protein abundance was determined as 0.996 ± 0.062.

Turning to RPL29 (UniProt P47914), the NP40-soluble protein abundance turned out to be 1 ± 0.011.

Take UniProt P49590 and related entries: the NP40-soluble protein abundance stood at 1.06 ± 0.04.

As to UniProt P49005 and related entries, the NP40-soluble protein abundance was 0.987 ± 0.034.

As to RGS19 (UniProt P49795), the NP40-soluble protein abundance amounted to 1 ± 0.024.

On to NCBP2 (UniProt P52298), for which the NP40-soluble protein abundance came to 1.01 ± 0.041.

In the case of HSPA2 (UniProt P54652), the NP40-soluble protein abundance was found to be 1.01 ± 0.022.

Turning to UniProt P46976 and related entries, the NP40-soluble protein abundance is 1.02 ± 0.014.

Turning to UniProt P49757 and related entries, the NP40-soluble protein abundance was found to be 1.02 ± 0.019.

UniProt P52735 and related entries: the NP40-soluble protein abundance was found to be 0.991 ± 0.08.

Take SLC19A1 (UniProt P41440): the NP40-soluble protein abundance was 1 ± 0.037.

Turning to NCKAP1L (UniProt P55160), the NP40-soluble protein abundance was found to be 1.02 ± 0.049.

On to UniProt P54886 and related entries, for which the NP40-soluble protein abundance was determined as 1.03 ± 0.016.

With UniProt P55327-2|P55327-4, the NP40-soluble protein abundance was 0.975 ± 0.075.

In the case of UniProt P55211 and related entries, the NP40-soluble protein abundance was found to be 0.996 ± 0.058.

Consider SUCLG1 (UniProt P53597), for which the NP40-soluble protein abundance came out at 0.981 ± 0.035.

For the target FXR2 (UniProt P51116), the NP40-soluble protein abundance was determined as 0.997 ± 0.043.

As for RAB27A (UniProt P51159), the NP40-soluble protein abundance came to 0.984 ± 0.058.

For HNRNPF (UniProt P52597), the NP40-soluble protein abundance stood at 0.976 ± 0.046.

Turning to NAMPT (UniProt P43490), the NP40-soluble protein abundance turned out to be 0.9842 ± 0.002.

Regarding HINT1 (UniProt P49773), the NP40-soluble protein abundance is 0.956 ± 0.018.

RPIA (UniProt P49247): the NP40-soluble protein abundance was 1.01 ± 0.04.

In the case of UBA7 (UniProt P41226), the NP40-soluble protein abundance was found to be 0.996 ± 0.033.

Regarding HADHA (UniProt P40939), the NP40-soluble protein abundance worked out at 1 ± 0.02.

Take PIK3CA (UniProt P42336): the NP40-soluble protein abundance was found to be 1.02 ± 0.025.

UniProt P51532 and related entries: the NP40-soluble protein abundance came out at 0.987 ± 0.025.

Take UniProt P47813: the NP40-soluble protein abundance is 0.977 ± 0.042.

Turning to STAT1 (UniProt P42224), the NP40-soluble protein abundance was found to be 0.996 ± 0.012.

In the case of RABIF (UniProt P47224), the NP40-soluble protein abundance stood at 0.985 ± 0.018.

With RBM25 (UniProt P49756), the NP40-soluble protein abundance came to 1 ± 0.039.

Still in this test, the particulars now being: concentration: 0.5mM.
Consider UniProt P51797 and related entries, for which the NP40-soluble protein abundance turned out to be 0.991 ± 0.041.

As to NUDT2 (UniProt P50583), the NP40-soluble protein abundance stood at 0.984 ± 0.081.

In the case of CLNS1A (UniProt P54105), the NP40-soluble protein abundance was 0.979 ± 0.047.

IQGAP1 (UniProt P46940): the NP40-soluble protein abundance was 0.999 ± 0.03.

With UniProt P51178 and related entries, the NP40-soluble protein abundance is 0.984 ± 0.044.

For the target UniProt P46108 and related entries, the NP40-soluble protein abundance is 1.05 ± 0.044.

UniProt P51798 and related entries: the NP40-soluble protein abundance was 0.981 ± 0.031.

Take UniProt P51795-2: the NP40-soluble protein abundance was 0.949 ± 0.0036.

For RPL29 (UniProt P47914), the NP40-soluble protein abundance came out at 1.04 ± 0.03.

For UniProt P49590 and related entries, the NP40-soluble protein abundance was found to be 0.94 ± 0.071.

For UniProt P49005 and related entries, the NP40-soluble protein abundance was 0.978 ± 0.018.

Consider RGS19 (UniProt P49795), for which the NP40-soluble protein abundance turned out to be 1.01 ± 0.022.

For the target NCBP2 (UniProt P52298), the NP40-soluble protein abundance was 1.04 ± 0.046.

As for HSPA2 (UniProt P54652), the NP40-soluble protein abundance worked out at 1.01 ± 0.022.

For the target UniProt P46976 and related entries, the NP40-soluble protein abundance turned out to be 1.01 ± 0.034.

As to UniProt P49757 and related entries, the NP40-soluble protein abundance turned out to be 1.01 ± 0.048.

With UniProt P52735 and related entries, the NP40-soluble protein abundance worked out at 0.969 ± 0.073.

Take SLC19A1 (UniProt P41440): the NP40-soluble protein abundance stood at 1 ± 0.021.

Regarding NCKAP1L (UniProt P55160), the NP40-soluble protein abundance was determined as 1.01 ± 0.049.

Turning to UniProt P54886 and related entries, the NP40-soluble protein abundance came out at 1.02 ± 0.032.

With UniProt P55327-2|P55327-4, the NP40-soluble protein abundance came to 0.986 ± 0.076.

Take UniProt P55211 and related entries: the NP40-soluble protein abundance came to 0.982 ± 0.012.

On to SUCLG1 (UniProt P53597), for which the NP40-soluble protein abundance worked out at 1.02 ± 0.063.

As to FXR2 (UniProt P51116), the NP40-soluble protein abundance was 0.994 ± 0.015.

Regarding RAB27A (UniProt P51159), the NP40-soluble protein abundance is 1.02 ± 0.026.

Take HNRNPF (UniProt P52597): the NP40-soluble protein abundance stood at 0.988 ± 0.03.

Consider NAMPT (UniProt P43490), for which the NP40-soluble protein abundance was found to be 0.987 ± 0.053.

Take HINT1 (UniProt P49773): the NP40-soluble protein abundance stood at 0.969 ± 0.018.

As to RPIA (UniProt P49247), the NP40-soluble protein abundance stood at 1.02 ± 0.013.

Regarding UBA7 (UniProt P41226), the NP40-soluble protein abundance is 0.964 ± 0.031.

As to HADHA (UniProt P40939), the NP40-soluble protein abundance was found to be 0.988 ± 0.059.

On to PIK3CA (UniProt P42336), for which the NP40-soluble protein abundance was 1.01 ± 0.066.

With UniProt P51532 and related entries, the NP40-soluble protein abundance was 1.04 ± 0.051.

With UniProt P47813, the NP40-soluble protein abundance was 1.01 ± 0.079.

Consider STAT1 (UniProt P42224), for which the NP40-soluble protein abundance came to 0.99 ± 0.02.

For the target RABIF (UniProt P47224), the NP40-soluble protein abundance turned out to be 0.988 ± 0.011.

Consider RBM25 (UniProt P49756), for which the NP40-soluble protein abundance came out at 1.03 ± 0.075.
